{"sequences": {"note": "Amino acid sequences for entries named in this document (tags omitted). A change or cut given only in a name is not applied to a line headed by its entry.", "UniProt P51450": "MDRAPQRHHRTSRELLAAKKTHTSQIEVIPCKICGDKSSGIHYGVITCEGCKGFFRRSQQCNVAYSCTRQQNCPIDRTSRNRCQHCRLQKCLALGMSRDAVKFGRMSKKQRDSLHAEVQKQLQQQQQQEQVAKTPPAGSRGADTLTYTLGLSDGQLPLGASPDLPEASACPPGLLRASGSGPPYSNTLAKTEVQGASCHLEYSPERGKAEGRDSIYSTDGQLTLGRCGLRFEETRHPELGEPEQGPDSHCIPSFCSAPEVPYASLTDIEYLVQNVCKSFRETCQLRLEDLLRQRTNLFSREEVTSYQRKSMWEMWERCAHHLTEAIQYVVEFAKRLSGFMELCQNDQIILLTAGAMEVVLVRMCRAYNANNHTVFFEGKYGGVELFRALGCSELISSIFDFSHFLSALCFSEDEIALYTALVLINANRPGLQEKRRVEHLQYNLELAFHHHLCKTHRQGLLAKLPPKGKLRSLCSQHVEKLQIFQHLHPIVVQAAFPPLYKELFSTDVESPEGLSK"}, "source": "PubChem BioAssay AID2551", "about": "(National Center for Advancing Translational Sciences (NCATS), 2010)", "note": "In all, about 310,000 compounds went through this assay and about 17,000 (5.5%) were called active. The shares of active, inactive and inconclusive entries below differ from those in the screen. Calls come from the whole dose curve; as a rule, active = well fitted inhibition curve with a large enough effect; inconclusive = small, poorly fitted or top-dose-only effect, or effect the other way; inactive = no such curve, though single readings can be large or run the other way. A potency beside an inconclusive call is a rough fit, not a confirmed value. % is set by controls: 0 for no effect and ±100 for the full control effect; potency is the fitted concentration of half-maximal effect."}
{"molecular_target": "Nuclear receptor ROR-gamma (Mus musculus) (UniProt P51450)", "assay": "qHTS for inhibitors of ROR gamma transcriptional activity; note: nearly all actives have a fitted effect of over 60% in size", "conditions": "Drosophila S2 Gal4-RORgamma UAS-luciferase reporter, 20 h; activity change, negative = inhibition: at 53.6 µM (top of the series)", "method_in_brief": "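Using a luciferase readout, inhibitors were identified by reduced reporter activity in Drosophila cells coexpressing a copper-inducible Gal4–ROR gamma fusion and UAS-driven Photinus luciferase, incubated 20 hr after 700 uM copper sulfate.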"}
{"compound": "Cc1nc(Nc2ccc3c(c2)OCCO3)c2oc3ccccc3c2n1", "activity change, negative = inhibition": "inactive: 23.7%"}
{"compound": "Cc1ccc(Nc2c3c(nc4ncnn24)CC(C)CC3)cc1", "note": "(stereo not drawn)", "Potency": "active: 17.8 µM"}
{"compound": "O=C(OCC(=O)N1CCCc2ccccc21)c1cncc(Br)c1", "Potency": "inconclusive: 12.6 µM [activator, single point]"}
{"compound": "S=C(NCc1ccccn1)Nc1ccc(Cl)c(Cl)c1", "Potency": "active: 2.51 µM"}
{"compound": "CSc1ncc2c(=O)[nH]c(-c3ccccc3)nc2n1", "Potency": "inconclusive: 8.91 µM [activator, partial curve, poor fit]"}
{"compound": "c1ccc(CCNc2ncnc3sccc23)nc1", "Potency": "inconclusive: 1.78 µM [activator, partial curve]"}
{"compound": "COC(=O)C1=C(O)/C(=C\\c2cc(C)n(-c3ccccc3C)c2C)N=C1C", "Potency": "inconclusive: 28.2 µM [inhibitor, single point]"}
{"compound": "O=C(CSc1nnc2scc(-c3ccccc3)n12)N1CCN(Cc2ccccc2)CC1", "Potency": "active: 8.91 µM"}
{"compound": "Cc1cc(C(=O)N/N=C/c2ccc(N(C)C)cc2)c2ccccc2n1", "Potency": "active: 15.8 µM"}
{"compound": "CC(C)C[C@H](NC(=O)N1CC(=O)Nc2ccccc21)C(=O)N[C@H](Cc1ccccc1)C(=O)O", "activity change, negative = inhibition": "inactive: -9.76%"}
{"compound": "CCOc1ccc(NC(=O)Nc2cccc(C(=O)O)c2)cc1", "Potency": "active: 5.01 µM"}
{"compound": "COc1cccc(Cn2c(=O)c(-c3cccs3)nc3cnc(Nc4ccccc4)nc32)c1", "Potency": "inconclusive: 0.891 µM [inhibitor, partial curve]"}
{"compound": "O=C(/C=C/c1ccc(O)c(O)c1)OCCc1ccccc1", "Potency": "inconclusive: 8.91 µM [inhibitor, partial curve, poor fit]"}
{"compound": "O/N=C/c1ccc2ccccc2n1", "activity change, negative = inhibition": "inactive: -29.5%"}
{"compound": "COc1cccc(/C=N/NC(=O)CCCC(=O)Nc2ccc(Br)cc2)c1", "Potency": "inconclusive: 35.5 µM [activator, single point]"}
{"compound": "CCOC(=O)c1cccc(Nc2ncnc3ccccc23)c1", "Potency": "inconclusive: 12.6 µM [activator, partial curve, poor fit]"}
{"compound": "Cc1cc2ccccn2c1C(=O)c1ccc([N+](=O)[O-])o1", "activity change, negative = inhibition": "inactive: -41.2%"}
{"compound": "CCCC12CN3CC(C)(CN(C1)C3c1cccs1)C2=O", "note": "(stereo not drawn)", "activity change, negative = inhibition": "inactive: -15.8%"}
{"compound": "CC(C)(C)/C(O)=C(/C#N)c1nc2ccccc2[nH]1", "Potency": "active: 11.2 µM"}
{"compound": "COc1cc(OC)cc(-c2nnc(NC(=O)c3ccc4c(c3)OCCO4)o2)c1", "Potency": "active: 0.316 µM"}
{"compound": "O=C(OCC(=O)N1CCOCC1)c1ccccc1Cc1ccccc1", "Potency": "inconclusive: 0.562 µM [activator, full curve, poor fit]"}
{"compound": "CC(C)=CC(=O)N1CCC(N2CCC(C(=O)N3CCOCC3)CC2)CC1", "activity change, negative = inhibition": "inactive: -19.3%"}
{"compound": "O=S(=O)(NC1CCCC1)c1ccc(S(=O)(=O)N(Cc2cccs2)CC2CCCO2)cc1", "note": "(stereo not drawn)", "Potency": "inconclusive: 35.5 µM [activator, single point]"}
{"compound": "COC(=O)c1cc(OC)c(OC)cc1NC(=O)Cc1ccccc1[N+](=O)[O-]", "Potency": "inconclusive: 15.8 µM [activator, partial curve]"}
{"compound": "Cc1ccc(NC(=O)CCN2C(=O)C3C4CCC(C4)C3C2=O)cc1[N+](=O)[O-]", "note": "(stereo not drawn)", "Potency": "inconclusive: 17.8 µM [activator, single point]"}
{"compound": "Cc1ccc(NC(=O)NC2CCCCC2)cc1Cl", "Potency": "inconclusive: 1.41 µM [activator, partial curve]"}
{"compound": "Cc1cccc(OCCCCc2c(C)n[nH]c2C)c1C", "Potency": "active: 14.1 µM"}
{"compound": "CCOC(=O)CC(=O)c1sc2c(c1N)c(=O)[nH]c(=O)n2-c1ccc(OC)cc1", "activity change, negative = inhibition": "inactive: -0.159%"}
{"compound": "COCCn1cc(-c2csc(N)n2)c2ccccc21", "Potency": "inconclusive: 25.1 µM [activator, single point]"}
{"compound": "CC(=O)c1cc(F)c(N2CCN(C(=O)COc3ccc(F)cc3)CC2)cc1C", "Potency": "inconclusive: 15.8 µM [activator, partial curve]"}
{"compound": "N=C1SCC(=O)N1/N=C/c1ccccc1", "Potency": "active: 11.2 µM"}
{"compound": "COc1nc(NCCc2ccc(OC)c(OC)c2)nc(NC(C)(C)CO)n1", "Potency": "inconclusive: 6.31 µM [activator, single point]"}
{"compound": "Cc1cc(NS(=O)(=O)c2ccc(NC(=S)Nc3ccc(Cl)cc3C)cc2)no1", "Potency": "inconclusive: 22.4 µM [inhibitor, single point]"}
{"compound": "Cc1cc(C(=O)CCl)c(C)n1-c1cccc([N+](=O)[O-])c1", "Potency": "active: 8.91 µM"}
{"compound": "Cc1ccc(C(=O)COC(=O)c2cccs2)cc1", "Potency": "inconclusive: 12.6 µM [inhibitor, single point]"}
{"compound": "COc1ccc(/C=N/NC(=O)c2cc(-c3cccnc3)nc3ccccc23)c(OC)c1", "Potency": "inconclusive: 35.5 µM [inhibitor, single point]"}
{"compound": "O=C(CCc1ccccc1)NNC(=O)Nc1ccc(Br)cc1", "activity change, negative = inhibition": "inactive: 0%"}
{"compound": "C/C(CC(=O)Nc1cc(C)ccn1)=N\\NC(=O)c1ccccc1C", "Potency": "active: 8.91 µM"}
{"compound": "C/C(=N\\NC(=O)c1ccc2ccccc2c1)c1cccs1", "Potency": "inconclusive: 6.31 µM [inhibitor, single point]"}
{"compound": "COC(=O)C1(CC2CC(c3cccc(Br)c3)=NO2)CCN(C(=O)OC(C)(C)C)CC1", "note": "(stereo not drawn)", "activity change, negative = inhibition": "inactive: 33.7%"}
{"compound": "O=C(CSc1ncccc1-c1nc2ccccc2[nH]1)Nc1ccc2c(c1)OCCO2", "Potency": "inconclusive: 11.2 µM [activator, partial curve]"}
{"compound": "O=C(NC(=S)Nc1ccc(NC(=O)c2cccs2)cc1)c1ccco1", "Potency": "inconclusive: 35.5 µM [inhibitor, single point]"}
{"compound": "O=C1NC(c2ccccc2)C(C(=O)c2cccs2)=C1O", "note": "(stereo not drawn)", "Potency": "inconclusive: 12.6 µM [activator, single point]"}
{"compound": "COc1cc(C(=O)N2CCN(c3cccc(C)c3C)CC2)cc(OC)c1OC", "Potency": "inconclusive: 31.6 µM [activator, single point]"}
{"compound": "CC(C)N1CC2=C(OC(N)=C(C#N)C2c2cccnc2)/C(=C/c2cccnc2)C1", "note": "(stereo not drawn)", "activity change, negative = inhibition": "inactive: -0.588%"}
{"compound": "COc1ccc(-c2nn(-c3ccccc3)cc2C(=O)Nc2nccs2)cc1OC", "Potency": "inconclusive: 20 µM [inhibitor, single point]"}
{"compound": "O=C(O)CN1CCNCC1", "Potency": "inconclusive: 0.126 µM [inhibitor, single point]"}
{"compound": "N#CCO/N=C/C(=O)Nc1ccc(F)cc1F", "activity change, negative = inhibition": "inactive: -11.1%"}
